Values from PubChem BioAssay AID1671195 (Yale University, 2021)
Screen: 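Genes whose knockdown alters LDL uptake in liver cancer cells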 (primary screen). System: human Huh7 hepatoma cells. Knock-down reagent: siRNA pool against human genes, 18 nM. Duration: about 2 to 2.5 days of knockdown, then 8 h LDL uptake. Treatment: DiI-labelled LDL at 30 µg/ml for 8 h, in lipoprotein-deficient serum medium. Detection: 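Per-cell DiI-LDL intensity by automated imaging; well means scaled to the plate median and given as a robust z-score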. Reading the numbers: robust z-score: higher = more LDL uptake after knockdown. Active means: 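Active when two or more replicates show a robust z-score above 2 or below -2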.
This is an unselected part of about 22,000 deposited reagents. In the full data, about 1,510 (6.9%) are marked active. 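Active includes knockdowns raising or lowering LDL uptake; positive z-scores mean more uptake, negative mean less.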

gene | robust z-score, replicate 1 | robust z-score, replicate 2 | robust z-score, replicate 3 | Call
TFCP2L1 | -0.923 | -0.639 | -0.803 | inactive
LOC400567 (retired record) | -0.752 | -0.00321 | -0.259 | inactive
DCUN1D1 | 1.59 | 2.38 | 2.26 | active
GTF2H3 | 0.313 | -0.0942 | 0.151 | inactive
RPL7AP66 | -0.0284 | -0.187 | 0.204 | inactive
STAP2 | 0.736 | -0.397 | 0.875 | inactive
NEK1 | 0.906 | 1.5 | 0.907 | inactive
GGT7 | 1.68 | 3.43 | 1.91 | inactive
SLC41A1 | -0.485 | -0.0932 | 0.113 | inactive
CRY1 | 0.264 | 1.92 | 0.849 | inactive
CBX8 | -0.913 | -0.394 | 0.121 | inactive
TRIM62 | -0.95 | 0.252 | 0.134 | inactive
CC2D1A | 0.9 | 1.96 | -0.66 | inactive
THRA | -0.368 | -1.76 | -1.1 | inactive
LINC02692 | -0.62 | -1.16 | -0.668 | inactive
ZFP42 | -1.09 | -0.968 | -1.86 | inactive
TMEM14A | 2.74 | 1.85 | 2.79 | active
CHST12 | 1.21 | 0.758 | 0.729 | inactive
ZNF682 | -1.93 | -1.7 | -1.01 | inactive
NCAN | 0.737 | 1.24 | 1.18 | inactive
FGF14-IT1 | 1.5 | 1.44 | 1.42 | inactive
FEM1B | -0.766 | -0.72 | -1.13 | inactive
LINC02593 | 0.211 | 0.418 | 0.451 | inactive
PON1 | 1.01 | -0.132 | 1.32 | inactive
LOC390880 (retired record) | -1.39 | -1.35 | -1.56 | inactive
ZBED1 | 1.09 | 0.308 | 1.08 | inactive
CNTRL | 0.437 | 0.601 | 0.306 | inactive
KCNMB1 | 0.741 | 1.03 | 0.299 | inactive

Part of the list above, reformatted:
gene	robust z-score, replicate 1	robust z-score, replicate 2	robust z-score, replicate 3	Call
ZNF682	-1.93	-1.7	-1.01	inactive
NCAN	0.737	1.24	1.18	inactive
FGF14-IT1	1.5	1.44	1.42	inactive
